Data on 59 molecules can be found in PubChem BioAssay AID540335 (Broad Institute, 2011).

Screen size: about 1,300 compounds; about 270 (21%) were called active.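 The calls were made as follows: active = dose-dependent rise or fall in viability, either side of zero, with half-maximal concentration at or below a set limit; inconclusive = flat curve at 30 to 70% viability loss, or poor fit; inactive = flat within 30% either way, or potency beyond limit.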 The list shows a part of the results. Potency and affinity values are given separately.

This assay is described as follows: A375 melanoma cell viability reduction, dose response, counter-screen for MITF modulator project, cherry-pick samples, set 2 (AID 540335).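 Also: A375 human melanoma cells which do not depend on MITF; 0% = median of neutral control wells and 100% = double that signal.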 The settings on record: CellTiter-Glo ATP luminescence, 24 h; at 35 µM (top of the series). For orientation: Counterscreens check selectivity or assay interference.
For the molecule `O=C(/C=C/c1ccc2c(c1)OCO2)N1CCCCC1`, the activity change, negative = decreased viability was inactive: -0.046%. Regarding `Nc1c(-c2ccccc2)cnc2c(-c3ccccc3)cnn12`, the activity change, negative = decreased viability was inactive: -3.09%. On to `CN(C)Cc1c(O)ccc2c1O/C(=C\C=C\c1ccccc1)C2=O`, for which the activity change, negative = decreased viability is inactive: 3.6%. Consider `O=C(CCl)Nc1cccc(Oc2ccccc2)c1`, for which the activity change, negative = decreased viability was inactive: -29.8%.

Turning to `Cc1[nH]nc(Nc2ccc(Br)cc2)c1[N+](=O)[O-]`, the activity change, negative = decreased viability is inactive: -6.02%. For the molecule `Cc1onc(-c2ccccc2)c1C(=O)N/N=C/c1ccc([N+](=O)[O-])s1`, the activity change, negative = decreased viability is inactive: -12.4%. Consider `C(=N\Nc1cc(N2CCCCC2)ncn1)/c1ccco1`, for which the activity change, negative = decreased viability was inactive: -3.19%. Regarding `CC(C)C(CCNC1CCN(C)CC1)c1ccc(Cl)cc1` (centres undefined), the activity change, negative = decreased viability was inactive: -4.07%. The result for `C/C(=C\c1ccccc1)C(=O)Nc1ccc(Cl)cn1` reads inactive: 3.5%; that for `Nc1nc2ccccc2n1/N=C/c1ccc([N+](=O)[O-])s1`, inactive: -21%; that for `O=C(CCl)N(Cc1cc(=O)[nH]c2ccccc12)c1ccccc1`, inactive: 0.396%.

Regarding `CC(NC(=O)c1ccc([N+](=O)[O-])o1)C12CC3CC(CC(C3)C1)C2` (centres undefined), the activity change, negative = decreased viability was inactive: 15.9%. The result for `CC1Cc2cc(-c3csc(N)n3)ccc2O1` (centres undefined) reads inactive: 1.86%; that for `Cc1ccc(-c2n[nH]c(=O)c3ccccc23)cc1S(=O)(=O)NCC1CCCO1` (centres undefined), inactive: 8.17%; that for `COc1ccc(C)cc1Nc1nc(N)c2cc(OC)c(OC)cc2n1`, inactive: -21.9%. As for `Cc1ccc(NC(=O)c2cc(-c3cccs3)on2)cc1`, the figure is inactive: 7.41%; as for `COc1ccc(C(=O)N/N=C/c2cc(Br)ccc2O)cc1OC`, inactive: -39.9%; as for `CN(C)c1ccc(/C=N\NC(=O)c2cccc3cc[nH]c23)cc1`, inactive: 6.58%. As for `CC(C)CN=C(NS(=O)(=O)c1ccccc1)C(Cl)(Cl)Cl`, the activity change, negative = decreased viability was inactive: -34.1%. For `O=[N+]([O-])c1cc(S(=O)(=O)N2CCCCCC2)ccc1F`, the activity change, negative = decreased viability is inactive: -19.8%.

On to `CCN(CC)CCNC(=O)C1CCN(S(=O)(=O)c2c(C)noc2/C=C/c2ccccc2F)CC1`, for which the activity change, negative = decreased viability is inactive: -10.5%. For `COc1ccc(C(=O)/C=C/C(=O)N(CC(=O)NC2CCCCC2)Cc2ccccc2OC)c(O)c1`, the activity change, negative = decreased viability was inactive: -5.15%.

As to `O=C(Nc1ccc(Cl)c(S(=O)(=O)N2CCOCC2)c1)c1ccc(OCC2CCCO2)cc1` (centres undefined), the activity change, negative = decreased viability is inactive: -37.8%.

`N#Cc1cnn2cc(CCN3CCOCC3)c(-c3ccc(F)cc3)nc12`: the activity change, negative = decreased viability was inactive: 7.97%. In the case of `Nc1c(N(CCC2=CCCCC2)C(=O)COc2ccc(F)cc2)c(=O)[nH]c(=O)n1Cc1ccccc1`, the activity change, negative = decreased viability is inactive: -37.6%. Regarding `Cn1nnnc1Sc1ncnc2scc(-c3ccc[nH]3)c12`, the activity change, negative = decreased viability was inactive: -11.1%. As for `COc1ccc(C(=O)/C=C/C(=O)N(CC(=O)NC2CCCCC2)CC2CCCO2)c(O)c1` (centres undefined), the activity change, negative = decreased viability is inactive: -33.5%. As for `Cc1cc(C)c(C#N)c(SCc2nnc(-c3ccccc3)o2)n1`, the figure is inactive: 6.03%; as for `O=C(Nc1cccnc1Cl)c1cc(-c2ccco2)on1`, inactive: 7.02%. As for `CCOC(=O)CSC1=NC(=O)/C(=C\c2ccc(Cl)cc2)S1`, the activity change, negative = decreased viability was inactive: -2.2%. The result for `CCn1c(/C=C/N(C)c2ccccc2)[n+](CC)c2ccc(Cl)cc21` reads inactive: -36.6%; that for `COc1ccc(-n2ncc3c(N4CCCCC4)ncnc32)cc1`, inactive: -28.9%.

Consider `COc1ccc(C(=O)/C=C/C(=O)N(CC(=O)NC2CCCCC2)Cc2ccccc2)c(O)c1`, for which the activity change, negative = decreased viability is inactive: -10.6%.

For `C1CCC(C(CC2CCCCN2)C2CCCCC2)CC1` (centres undefined), the activity change, negative = decreased viability was inactive: -92.8%.

With `Cc1ccc2nc3cc([N+](=O)[O-])cc([N+](=O)[O-])c3cc2c1`, the activity change, negative = decreased viability was inactive: 3.06%.

Take `O=C(N/N=C\c1ccc([N+](=O)[O-])o1)C1COc2ccccc2O1` (centres undefined): the activity change, negative = decreased viability is inactive: -6.08%. As for `CCOc1ccccc1NC(=O)C(=O)N/N=C/c1cc(Br)ccc1O`, the figure is inactive: -30.9%; as for `CCC(=O)OCCNc1cc(Sc2nc3ccccc3[nH]2)c2nonc2c1[N+](=O)[O-]`, inactive: 24.5%.

Take `Cc1ccsc1C(=O)OCC(=O)Nc1sccc1C(N)=O`: the activity change, negative = decreased viability was inactive: -10.9%. As for `Cc1cc(C)nc(S/C=C/C(=O)c2ccccc2F)n1`, the figure is inactive: -20.2%; as for `C=C1C(=O)C=C[C@]2(C)C[C@@H]3OC(=O)[C@](C)(O)[C@H]3C[C@@H]12`, inactive: -1.56%; as for `CCN1c2ccccc2NC2C1C(C(C)=O)C(=O)N2c1ccc(Cl)cc1` (centres undefined), inactive: -2.02%. For `Brc1cccc(/C=N/Nc2nn[nH]n2)c1`, the activity change, negative = decreased viability is inactive: 2.47%.

`CCC1CCCCN1CCCNC(=O)c1cn(CC)c2ccc(S(=O)(=O)N(C)C3CCCCC3)cc2c1=O` (centres undefined): the activity change, negative = decreased viability was inactive: 10.2%. The result for `CC(=O)OCCNc1cc(Sc2nc3ccccc3[nH]2)c2nonc2c1[N+](=O)[O-]` reads inactive: 1.78%; that for `CC(C)[C@H](NC(=O)OC(C)(C)C)c1nnc(S(=O)(=O)Cc2c(F)cccc2Cl)o1`, inactive: 94.5%; that for `COc1ccc(/C=C/C(=O)NC(=S)N2CCN(c3ccccc3OC)CC2)cc1`, inactive: 2.37%. As for `Cc1cc(C)c2c(N)c(C(=O)N/N=C/c3ccccc3)sc2n1`, the activity change, negative = decreased viability is inactive: 12.6%.

Regarding `COC(=O)CSC1=C(C#N)C(=O)NC(c2ccccc2)S1` (centres undefined), the activity change, negative = decreased viability is inactive: 49%. As to `C=CCn1c(C)cc(C2=NNC(=NC(C)(C)C)SC2)c1C`, the activity change, negative = decreased viability was inactive: -8.51%. As for `O=C(Nc1ccc(N2CCOCC2)c(Cl)c1)c1cccc(F)c1`, the activity change, negative = decreased viability was inactive: 9.79%. As to `COCn1c(COc2ccccc2)nc2ccccc21`, the activity change, negative = decreased viability is inactive: -21.5%. The result for `Nc1nnnn1/N=C/C(Br)=C/c1ccccc1` reads inactive: -22.9%. With `COc1ccc(CCn2c(=S)[nH]c3cc(C(=O)NCc4ccco4)ccc3c2=O)cc1OC`, the activity change, negative = decreased viability is inactive: -33.1%. On to `Cc1cccc(NC(=O)c2cnn(-c3ccccc3)c2C)c1C`, for which the activity change, negative = decreased viability is inactive: 16.8%. For the molecule `COc1cc([N+](=O)[O-])cc(/C=N/NC(=O)c2ccc(NC(=O)c3ccc(C)cc3)cc2)c1O`, the activity change, negative = decreased viability was inactive: -6.25%.

Consider `O=C(O)CSCC(=O)Nc1ccc(C2CCCCC2)cc1`, for which the activity change, negative = decreased viability is inactive: -1.99%.

On to `Nc1c2c(=O)oc(-c3ccccc3)cc2nn1-c1ccccc1`, for which the activity change, negative = decreased viability is inactive: 1.59%. As for `CCCCC[n+]1ccn(C2=C([O-])c3ccccc3C(=O)/C2=N\S(=O)(=O)c2ccccc2)c1`, the activity change, negative = decreased viability was inactive: -11%.
